Assay [1] deals with recombinant PXN ΔIDR1 (purified) (UniProt P49023). In words: pull-down.
In assay [2] the target is recombinant PXN ΔIDR2 (purified) (UniProt P49023). In words: pull-down.

By UniProt entry, the sequences of proteins in these tests, tags left out. Where a name states a change or a piece, a line headed by the entry shows the natural chain unless it says otherwise.
UniProt P49023: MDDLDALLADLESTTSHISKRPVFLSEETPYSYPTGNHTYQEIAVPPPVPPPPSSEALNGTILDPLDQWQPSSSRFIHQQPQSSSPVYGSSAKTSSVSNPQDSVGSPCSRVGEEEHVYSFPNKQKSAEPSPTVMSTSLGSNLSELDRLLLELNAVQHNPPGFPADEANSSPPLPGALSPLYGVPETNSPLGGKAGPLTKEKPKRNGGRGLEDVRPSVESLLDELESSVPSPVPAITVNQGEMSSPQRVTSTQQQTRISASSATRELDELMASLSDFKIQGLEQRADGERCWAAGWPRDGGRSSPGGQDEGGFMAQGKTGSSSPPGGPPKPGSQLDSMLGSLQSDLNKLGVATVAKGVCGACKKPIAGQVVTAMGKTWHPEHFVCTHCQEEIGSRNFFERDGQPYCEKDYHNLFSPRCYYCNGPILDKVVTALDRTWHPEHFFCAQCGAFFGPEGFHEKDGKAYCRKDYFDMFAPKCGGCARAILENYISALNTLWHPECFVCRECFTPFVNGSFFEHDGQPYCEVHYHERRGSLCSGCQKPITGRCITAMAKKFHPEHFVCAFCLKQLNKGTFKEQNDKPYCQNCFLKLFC
UniProt Q96AC1: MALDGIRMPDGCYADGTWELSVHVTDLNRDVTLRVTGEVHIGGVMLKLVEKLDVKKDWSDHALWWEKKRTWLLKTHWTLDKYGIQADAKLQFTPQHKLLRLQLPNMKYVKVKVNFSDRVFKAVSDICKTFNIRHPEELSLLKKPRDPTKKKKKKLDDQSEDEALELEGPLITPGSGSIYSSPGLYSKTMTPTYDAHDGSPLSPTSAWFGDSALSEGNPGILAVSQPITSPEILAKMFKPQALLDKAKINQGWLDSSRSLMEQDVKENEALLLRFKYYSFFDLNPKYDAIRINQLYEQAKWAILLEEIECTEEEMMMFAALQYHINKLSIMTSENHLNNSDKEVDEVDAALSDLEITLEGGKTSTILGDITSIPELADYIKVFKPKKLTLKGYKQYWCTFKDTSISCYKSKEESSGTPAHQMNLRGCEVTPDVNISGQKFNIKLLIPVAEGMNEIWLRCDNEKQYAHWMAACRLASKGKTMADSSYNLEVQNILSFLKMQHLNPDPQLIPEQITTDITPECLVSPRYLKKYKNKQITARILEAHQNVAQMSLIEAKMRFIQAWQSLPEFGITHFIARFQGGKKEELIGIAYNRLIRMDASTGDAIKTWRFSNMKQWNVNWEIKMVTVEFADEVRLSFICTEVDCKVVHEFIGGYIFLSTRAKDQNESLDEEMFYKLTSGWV

The results in this text go back to doi:10.1101/2022.12.17.520852.

Results are given in words; binding and its absence hold for the method and conditions named. Binding calls can cover weak binding; strength is not graded here.

Turning to “recombinant Kindlin-2 (purified) (from UniProt Q96AC1 1-680)”, the binding entry in assay [1] and in assay [2] was “binds” each time.
